Data on 38 molecules can be found in the supplement of paper PMC10403144.

Structures are written as SMILES. The list shows a part of the results.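 The calls were made as follows: active = mitochondrial OCR inhibition above 30% at 1 uM; inactive = 30% or less.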 Repeats are few or missing, and single values can be far off.

The first test has as its system Toxoplasma gondii RH tachyzoites. Kind of test: inhibition of mitochondrial O2 consumption rate (% inhibition (relative to pre-injection OCR and atovaquone/antimycin A control)); higher = stronger ETC inhibition. The note with it: 1 µM; injection port (sequential injection order): A.
Consider `COc1cccc(CC(=O)N2CCC(n3c(C)nc4ccc(F)cc43)CC2)c1`, for which the “inhibition of mitochondrial O2 consumption rate” value (from here on “inhibition”) was inactive: -8.21.

As to `O=C1COCc2ccc(Br)cc2N1Cc1ccc(C(F)(F)F)cc1`, the “inhibition” value is inactive: -8.64.

`CC(C(=O)N1CCCC1)N1CCN(S(=O)(=O)c2ccc(C(C)(C)C)cc2)CC1` (stereo not drawn): the “inhibition” value was inactive: -14.4.

For the molecule `CCC(=O)Nc1ccccc1C(=O)Nc1ccccn1`, the “inhibition” value was inactive: 3.71.

As for `O=C(Nc1nc(-c2ccccn2)cs1)C1CC1c1ccccc1F` (stereo not drawn), the “inhibition” value is inactive: -6.45.

For the molecule `CN1CCN(S(=O)(=O)c2ccc(-c3ccc4c(Nc5ccc6nn[nH]c6c5)ccnc4c3)cc2)CC1`, the “inhibition” value is inactive: -7.06.

Turning to `O=C(Nc1cccc(-c2ccc(NCCCN3CCCC3)nc2)c1)c1ccccc1`, the “inhibition” value was inactive: 2.77.

Turning to `CNC(=O)C1Cc2c([nH]c3cc(Cl)ccc23)C2(CCN(CCc3ccccc3)CC2)N1` (stereo not drawn), the “inhibition” value was inactive: -13.4.

Turning to `O=C(CN1CCOCC1)Nc1ccc2ncnc(Nc3ccc(OCc4cccc(F)c4)c(Cl)c3)c2c1`, the “inhibition” value is inactive: -1.01.

Consider `CS(=O)(=O)c1cccc(-c2cnc3[nH]cc(-c4ccc(CCC(=O)O)cc4)c3c2)c1`, for which the “inhibition” value was inactive: 5.37.

As to `COC(=O)c1c(NC(=O)c2c(F)c(F)c(F)c(F)c2F)sc2c1CCCCC2`, the “inhibition” value was inactive: -7.11.

With `CN(C)CCNC(=O)N1CCCN(c2ncnc3cc(-c4ccccc4)sc23)CC1`, the “inhibition” value was inactive: -12.9.

Regarding `N=C(N)c1ccc(-c2cc(-c3ccccc3)on2)cc1`, the “inhibition” value was inactive: -5.08.

Still in this test, the particulars now being: 1 µM; injection port (sequential injection order): B.
Consider `O=C(Nc1ccc2c(c1)B(O)OC2)c1ccccc1C(F)(F)F`, for which the “inhibition” value was inactive: 7.91.

For `Cc1cc(O)nc(-n2nc(C)cc2C)n1`, the “inhibition” value is inactive: -10.5.

Consider `CS(=O)(=O)c1ccc(C(=O)N(CC2CCCO2)c2nc3ccccc3s2)cc1[N+](=O)[O-]` (stereo not drawn), for which the “inhibition” value is inactive: 2.68.

For the molecule `COc1cccc(-n2nnnc2S(C)(=O)=O)c1`, the “inhibition” value was inactive: 6.65.

Take `O=C(NCCN1CCCC1)c1cc(NCCCCN2CCC(F)(F)CC2)nc2ccc(Cl)cc12`: the “inhibition” value was inactive: -10.

For `Cc1cnc(N2CCN[C@@H](Cc3ccccc3)C2)nc1Oc1ccc(-n2ccnc2)cc1`, the “inhibition” value was inactive: -12.

For the molecule `CCOc1ccc(-c2nc(NC(=O)CS(=O)(=O)c3ccccc3)sc2C)cc1`, the “inhibition” value is inactive: 6.88.

As to `Nc1ncc(Br)cc1-c1nc2cc(Cl)cnc2[nH]1`, the “inhibition” value was inactive: -10.2.

For the molecule `Cc1cc(C(=O)Nc2cnn(Cc3ccc(Cl)cc3Cl)c2)no1`, the “inhibition” value is inactive: -3.74.

For the molecule `CO[C@@H](C(=O)N1Cc2[nH]nc(NC(=O)c3ccc(N4CCN(C)CC4)cc3)c2C1)c1ccccc1`, the “inhibition” value is inactive: -5.6.

For the molecule `O=C1Nc2ccc(Br)cc2C12NCCc1c2[nH]c2ccccc12` (stereo not drawn), the “inhibition” value is inactive: -8.28.

Turning to `C[C@H]1c2cccc(O)c2C(=O)C2=C(O)[C@]3(O)C(=O)C(C(N)=O)=C(O)[C@@H](N(C)C)[C@@H]3[C@@H](O)[C@@H]21`, the “inhibition” value was inactive: -0.284.

For the molecule `CC(C)N=c1cc2n(-c3ccc(Cl)cc3)c3ccccc3nc-2cc1Nc1ccc(Cl)cc1`, the “inhibition” value was inactive: -2.01.

Consider `O=C(NC1CC1)c1ccc(N2CCC(Cc3ccccc3)CC2)nc1`, for which the “inhibition” value is active: 46.6.

Turning to `O=S(=O)(c1ccc(Cl)cc1)N1CCN(C(=S)NCc2ccco2)CC1`, the “inhibition” value is inactive: -5.99.

With `Oc1c(I)cc(I)c2cccnc12`, the “inhibition” value was inactive: -7.3.

Take `COc1ccc(C2=NN(C3CCCCCC3)C(=O)[C@@H]3CC=CC[C@H]23)cc1OCCCCOc1ccc(-c2nn[nH]n2)cc1`: the “inhibition” value was inactive: 3.19.

Turning to `CC(=O)Oc1ccccc1C(=O)Nc1ncc([N+](=O)[O-])s1`, the “inhibition” value was inactive: -12.9.

Still in this test, the particulars now being: 1 µM; injection port (sequential injection order): C.
As for `CCOC(=O)c1c(NC(=O)c2c(F)c(F)c(F)c(F)c2F)sc(C(N)=O)c1C`, the “inhibition” value is inactive: -15.7.

Consider `CC(C)n1nc(-c2cc3c(Cl)cccc3[nH]2)c2c(N)ncnc21`, for which the “inhibition” value was inactive: -19.6.

As to `COc1cc(C(F)(F)F)nc2ccc(C)c(N)c12`, the “inhibition” value was inactive: -16.8.

On to `Nc1nccc2ccc(Oc3ccncc3)cc12`, for which the “inhibition” value is inactive: -36.

Take `OC[C@H]1O[C@@H](n2c3ccc(Cl)cc3c3c(-c4cc5ccccc5o4)ncnc32)C(O)[C@H]1O` (stereo partly drawn): the “inhibition” value was inactive: -0.666.

In the case of `Cc1nc(-c2cccc(NCc3ccccc3)c2)[nH]c1C`, the “inhibition” value is inactive: -17.

On to `CCCCS(=O)(=O)Nc1ccc2cnn(C)c2c1`, for which the “inhibition” value is inactive: 1.74.
